Measurements taken from the supplement of paper PMC10849652.
The list shows a part of the results.

Chains of the proteins cited; added tags and fusions are not shown. Lines headed by an entry give the natural chain unless they say otherwise; changes in a name come on top.
UniProt Q9UN86: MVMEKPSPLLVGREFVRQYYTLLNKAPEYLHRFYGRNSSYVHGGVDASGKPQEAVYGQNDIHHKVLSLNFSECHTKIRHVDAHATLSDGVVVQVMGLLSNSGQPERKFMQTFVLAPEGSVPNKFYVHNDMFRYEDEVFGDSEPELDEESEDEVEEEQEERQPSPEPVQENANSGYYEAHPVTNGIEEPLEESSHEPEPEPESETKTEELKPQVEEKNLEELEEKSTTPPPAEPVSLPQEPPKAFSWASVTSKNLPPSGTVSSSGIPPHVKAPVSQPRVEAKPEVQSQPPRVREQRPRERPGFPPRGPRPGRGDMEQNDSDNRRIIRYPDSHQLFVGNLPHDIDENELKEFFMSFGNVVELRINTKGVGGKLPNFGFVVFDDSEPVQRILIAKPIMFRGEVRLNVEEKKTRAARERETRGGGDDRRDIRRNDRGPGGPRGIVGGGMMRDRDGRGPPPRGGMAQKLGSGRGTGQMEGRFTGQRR
UniProt P04406: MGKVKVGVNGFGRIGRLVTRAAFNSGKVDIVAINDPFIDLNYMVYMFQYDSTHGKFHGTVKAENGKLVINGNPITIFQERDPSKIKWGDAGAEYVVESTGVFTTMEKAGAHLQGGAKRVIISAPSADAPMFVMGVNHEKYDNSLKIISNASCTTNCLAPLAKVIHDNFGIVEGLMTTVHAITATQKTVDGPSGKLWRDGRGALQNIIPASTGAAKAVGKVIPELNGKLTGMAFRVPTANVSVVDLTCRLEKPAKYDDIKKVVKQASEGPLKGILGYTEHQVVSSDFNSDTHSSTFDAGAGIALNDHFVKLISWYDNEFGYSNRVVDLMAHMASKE
UniProt P48506: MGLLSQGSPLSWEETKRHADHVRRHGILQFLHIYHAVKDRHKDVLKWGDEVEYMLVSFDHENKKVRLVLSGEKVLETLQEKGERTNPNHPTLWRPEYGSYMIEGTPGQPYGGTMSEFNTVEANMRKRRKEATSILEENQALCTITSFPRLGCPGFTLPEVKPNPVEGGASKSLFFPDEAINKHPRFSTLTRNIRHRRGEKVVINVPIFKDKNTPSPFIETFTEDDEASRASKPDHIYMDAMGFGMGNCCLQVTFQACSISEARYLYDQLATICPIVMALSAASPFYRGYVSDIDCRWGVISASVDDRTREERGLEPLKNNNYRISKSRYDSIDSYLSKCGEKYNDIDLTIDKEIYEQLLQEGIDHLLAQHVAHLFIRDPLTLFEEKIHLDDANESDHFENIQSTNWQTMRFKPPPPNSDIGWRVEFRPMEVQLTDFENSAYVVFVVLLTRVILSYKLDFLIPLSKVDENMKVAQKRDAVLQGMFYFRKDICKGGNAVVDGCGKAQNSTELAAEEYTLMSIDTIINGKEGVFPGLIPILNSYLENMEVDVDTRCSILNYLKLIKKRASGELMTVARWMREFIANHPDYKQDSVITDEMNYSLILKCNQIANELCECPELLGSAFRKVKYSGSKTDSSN
UniProt P30047: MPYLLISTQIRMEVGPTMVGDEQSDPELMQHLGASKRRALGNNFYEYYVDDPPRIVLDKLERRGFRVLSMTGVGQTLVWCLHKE
UniProt Q8NCL4: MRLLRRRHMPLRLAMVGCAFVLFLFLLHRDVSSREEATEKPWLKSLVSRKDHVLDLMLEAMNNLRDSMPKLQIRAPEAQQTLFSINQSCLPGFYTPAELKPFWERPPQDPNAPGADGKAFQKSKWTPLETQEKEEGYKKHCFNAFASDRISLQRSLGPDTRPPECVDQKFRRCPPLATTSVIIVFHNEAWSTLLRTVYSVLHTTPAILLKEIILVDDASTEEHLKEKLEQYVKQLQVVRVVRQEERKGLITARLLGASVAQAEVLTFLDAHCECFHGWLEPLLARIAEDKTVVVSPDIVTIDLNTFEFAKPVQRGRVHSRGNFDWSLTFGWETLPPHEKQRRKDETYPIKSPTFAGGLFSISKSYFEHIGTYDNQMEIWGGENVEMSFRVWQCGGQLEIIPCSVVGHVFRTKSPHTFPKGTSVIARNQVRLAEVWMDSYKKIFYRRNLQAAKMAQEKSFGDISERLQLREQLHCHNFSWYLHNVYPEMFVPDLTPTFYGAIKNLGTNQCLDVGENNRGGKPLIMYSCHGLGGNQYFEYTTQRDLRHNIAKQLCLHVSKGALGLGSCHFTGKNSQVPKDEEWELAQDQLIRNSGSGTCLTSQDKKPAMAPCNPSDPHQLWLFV
UniProt Q13283, whole entry, looked up: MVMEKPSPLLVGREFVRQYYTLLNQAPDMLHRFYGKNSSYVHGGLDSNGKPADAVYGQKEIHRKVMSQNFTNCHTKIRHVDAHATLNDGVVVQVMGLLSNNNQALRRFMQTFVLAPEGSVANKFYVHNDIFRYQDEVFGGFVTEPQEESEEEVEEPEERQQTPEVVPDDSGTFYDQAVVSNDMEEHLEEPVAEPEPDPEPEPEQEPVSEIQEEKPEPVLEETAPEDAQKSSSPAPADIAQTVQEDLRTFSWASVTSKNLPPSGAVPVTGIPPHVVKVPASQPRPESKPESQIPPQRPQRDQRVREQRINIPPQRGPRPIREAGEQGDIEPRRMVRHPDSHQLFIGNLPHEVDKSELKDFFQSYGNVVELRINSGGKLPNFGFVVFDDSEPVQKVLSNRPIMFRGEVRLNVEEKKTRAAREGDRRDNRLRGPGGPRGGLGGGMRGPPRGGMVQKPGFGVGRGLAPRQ
UniProt Q14697: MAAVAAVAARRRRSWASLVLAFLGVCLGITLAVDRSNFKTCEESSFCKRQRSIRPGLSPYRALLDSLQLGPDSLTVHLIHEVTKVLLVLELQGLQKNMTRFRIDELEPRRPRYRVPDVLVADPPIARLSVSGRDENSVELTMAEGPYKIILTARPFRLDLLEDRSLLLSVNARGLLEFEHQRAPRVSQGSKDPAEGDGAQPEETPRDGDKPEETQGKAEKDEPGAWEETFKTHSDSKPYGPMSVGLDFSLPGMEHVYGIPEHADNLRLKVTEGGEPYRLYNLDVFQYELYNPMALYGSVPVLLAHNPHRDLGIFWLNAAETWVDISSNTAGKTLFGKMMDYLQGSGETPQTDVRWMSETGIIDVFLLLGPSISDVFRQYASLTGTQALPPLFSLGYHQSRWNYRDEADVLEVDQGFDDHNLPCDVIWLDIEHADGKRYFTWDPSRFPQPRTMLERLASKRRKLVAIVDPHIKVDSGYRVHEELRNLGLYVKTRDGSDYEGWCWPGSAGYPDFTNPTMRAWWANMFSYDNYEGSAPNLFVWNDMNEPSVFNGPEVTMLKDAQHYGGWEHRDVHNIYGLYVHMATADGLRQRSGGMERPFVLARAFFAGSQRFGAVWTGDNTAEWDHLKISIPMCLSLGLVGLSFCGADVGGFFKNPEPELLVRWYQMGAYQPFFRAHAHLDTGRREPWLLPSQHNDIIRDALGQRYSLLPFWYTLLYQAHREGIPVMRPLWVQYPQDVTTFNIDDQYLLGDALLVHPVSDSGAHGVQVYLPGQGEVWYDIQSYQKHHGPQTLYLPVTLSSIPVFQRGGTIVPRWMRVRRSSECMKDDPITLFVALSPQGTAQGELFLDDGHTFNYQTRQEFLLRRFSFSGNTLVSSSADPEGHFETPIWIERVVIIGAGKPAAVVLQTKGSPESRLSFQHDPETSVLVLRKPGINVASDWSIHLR
UniProt Q9BQS8: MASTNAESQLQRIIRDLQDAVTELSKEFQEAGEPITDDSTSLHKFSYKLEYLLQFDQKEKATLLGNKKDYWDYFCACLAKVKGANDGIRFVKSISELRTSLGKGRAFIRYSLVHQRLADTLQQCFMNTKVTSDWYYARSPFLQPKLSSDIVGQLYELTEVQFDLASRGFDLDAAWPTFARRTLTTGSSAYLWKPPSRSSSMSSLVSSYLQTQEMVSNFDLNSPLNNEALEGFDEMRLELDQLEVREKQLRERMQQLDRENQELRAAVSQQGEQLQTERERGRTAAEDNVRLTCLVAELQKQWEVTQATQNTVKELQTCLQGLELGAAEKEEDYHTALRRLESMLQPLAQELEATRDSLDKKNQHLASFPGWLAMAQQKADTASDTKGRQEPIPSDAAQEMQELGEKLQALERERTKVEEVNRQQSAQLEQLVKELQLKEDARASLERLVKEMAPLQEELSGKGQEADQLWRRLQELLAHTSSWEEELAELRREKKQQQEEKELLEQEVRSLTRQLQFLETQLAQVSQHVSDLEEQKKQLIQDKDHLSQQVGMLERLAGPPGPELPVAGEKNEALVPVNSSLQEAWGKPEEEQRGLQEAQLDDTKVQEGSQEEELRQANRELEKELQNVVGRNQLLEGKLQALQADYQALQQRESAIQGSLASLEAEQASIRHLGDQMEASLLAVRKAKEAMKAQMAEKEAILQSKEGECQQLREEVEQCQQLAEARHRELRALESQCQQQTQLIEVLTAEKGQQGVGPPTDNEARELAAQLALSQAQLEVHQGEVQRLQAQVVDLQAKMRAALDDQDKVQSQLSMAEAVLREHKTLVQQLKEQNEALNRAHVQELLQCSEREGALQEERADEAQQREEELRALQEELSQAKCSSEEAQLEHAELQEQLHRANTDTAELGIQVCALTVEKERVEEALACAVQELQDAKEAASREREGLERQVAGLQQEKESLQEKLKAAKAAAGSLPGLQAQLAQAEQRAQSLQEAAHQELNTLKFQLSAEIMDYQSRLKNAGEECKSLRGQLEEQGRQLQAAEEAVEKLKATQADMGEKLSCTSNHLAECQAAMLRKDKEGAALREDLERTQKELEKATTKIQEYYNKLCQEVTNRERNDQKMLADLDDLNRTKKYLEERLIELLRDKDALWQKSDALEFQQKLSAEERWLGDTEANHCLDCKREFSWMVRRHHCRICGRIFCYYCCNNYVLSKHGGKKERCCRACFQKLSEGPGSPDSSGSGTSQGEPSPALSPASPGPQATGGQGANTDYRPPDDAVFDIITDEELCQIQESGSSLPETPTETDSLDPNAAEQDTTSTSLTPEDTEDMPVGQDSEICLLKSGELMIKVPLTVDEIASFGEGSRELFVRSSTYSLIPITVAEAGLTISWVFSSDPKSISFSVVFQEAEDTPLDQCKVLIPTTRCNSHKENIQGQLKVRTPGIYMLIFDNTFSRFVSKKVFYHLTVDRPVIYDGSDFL
UniProt Q96C23: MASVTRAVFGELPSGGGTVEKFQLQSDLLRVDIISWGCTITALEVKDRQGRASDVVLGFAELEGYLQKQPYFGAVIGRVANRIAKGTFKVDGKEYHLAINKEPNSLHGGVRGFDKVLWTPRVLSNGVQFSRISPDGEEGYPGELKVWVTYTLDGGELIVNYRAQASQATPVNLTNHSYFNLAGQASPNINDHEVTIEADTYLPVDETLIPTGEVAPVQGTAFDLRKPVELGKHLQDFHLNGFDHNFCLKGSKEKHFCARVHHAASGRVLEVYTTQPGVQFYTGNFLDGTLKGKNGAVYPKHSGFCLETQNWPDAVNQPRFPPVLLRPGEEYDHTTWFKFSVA
UniProt P02794, whole entry, looked up: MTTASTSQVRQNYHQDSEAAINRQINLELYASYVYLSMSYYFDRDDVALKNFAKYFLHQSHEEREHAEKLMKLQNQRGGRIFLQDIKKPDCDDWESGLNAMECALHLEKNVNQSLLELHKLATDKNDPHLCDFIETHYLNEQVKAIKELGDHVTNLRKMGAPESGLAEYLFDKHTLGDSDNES
UniProt Q9NZ52: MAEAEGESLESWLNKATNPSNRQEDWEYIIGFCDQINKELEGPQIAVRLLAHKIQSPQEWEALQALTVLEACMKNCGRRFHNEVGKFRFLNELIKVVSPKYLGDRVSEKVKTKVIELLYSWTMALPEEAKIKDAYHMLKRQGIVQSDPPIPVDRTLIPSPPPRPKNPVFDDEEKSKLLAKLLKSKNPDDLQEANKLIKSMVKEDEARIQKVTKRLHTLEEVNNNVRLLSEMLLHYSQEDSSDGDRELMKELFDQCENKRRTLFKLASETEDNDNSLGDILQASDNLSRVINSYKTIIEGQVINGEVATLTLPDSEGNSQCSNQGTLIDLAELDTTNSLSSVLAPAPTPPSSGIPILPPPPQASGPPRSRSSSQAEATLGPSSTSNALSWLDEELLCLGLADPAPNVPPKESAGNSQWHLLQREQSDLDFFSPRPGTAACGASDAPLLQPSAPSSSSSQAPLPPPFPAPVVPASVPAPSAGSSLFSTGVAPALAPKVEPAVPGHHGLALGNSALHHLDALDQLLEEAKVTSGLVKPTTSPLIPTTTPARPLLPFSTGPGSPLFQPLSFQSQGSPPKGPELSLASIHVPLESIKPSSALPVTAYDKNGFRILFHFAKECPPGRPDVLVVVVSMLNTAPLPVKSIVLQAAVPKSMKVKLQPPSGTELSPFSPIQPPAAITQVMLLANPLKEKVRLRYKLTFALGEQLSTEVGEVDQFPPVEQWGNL
UniProt P55789: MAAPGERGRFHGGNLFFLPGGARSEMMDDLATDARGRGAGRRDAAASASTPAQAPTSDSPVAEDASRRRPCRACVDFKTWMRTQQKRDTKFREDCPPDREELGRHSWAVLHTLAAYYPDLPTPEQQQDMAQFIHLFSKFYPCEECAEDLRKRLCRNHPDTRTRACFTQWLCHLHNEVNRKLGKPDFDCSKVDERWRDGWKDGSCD

compound: C#Cc1cccc(Nc2ncnc3cc(OCCOC)c(OCCOC)cc23)c1 [erlotinib]; assay: log2 fold change, soluble protein after heating vs DMSO (PISA); higher = thermal stabilisation; K562 cells, 10 uM, 30 min; active = over 0.2 and 3.5 SD of the protein, either way, in both replicates (recomputed)
Procedure, shortened: (§1)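 Soluble protein was defined as the supernatant after 21,000xg for 90 min. It came from K562 cells at 2×10^6 cells/mL given 10 μM compound for 30 min, heated in aliquots for 3 min across 48°C-58°C, pooled, and extracted in PBS with 0.5% NP-40 at 4°C, and was quantified by TMTpro 16plex LC-MS/MS with equalised channel sums. Thermal stability against control samples, from duplicates, is reported as log2 fold change.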

log2 fold change, inactive:
GGNBP2 (UniProt Q9H3C7) -0.115
GAB1 isoform 2 (UniProt Q13480) 0.207
FPGT (UniProt O14772) 0.011
GALK2 (UniProt Q01415) -0.008
G3BP2 (UniProt Q9UN86) -0.089
GEMIN4 (UniProt P57678) 0.084
FUNDC2 (UniProt Q9BWH2) -0.024
FXN (UniProt Q16595) 0
FRRS1 (UniProt Q6ZNA5) -0.034
GGPS1 (UniProt O95749) -0.021
GGH (UniProt Q92820) 0.008
GFPT1 (UniProt Q06210) 0.027
GAPDH (UniProt P04406) -0.004
GCLC (UniProt P48506) 0.031
FUBP1 (UniProt Q96AE4) -0.029
GCHFR (UniProt P30047) 0.075
GART (UniProt C9JZG2) 0.25
GALNT6 (UniProt Q8NCL4) 0.25
FTSJ1 (UniProt Q9UET6) 0.032
G3BP1 (UniProt Q13283) -0.076
GANAB isoform 2 (UniProt Q14697) -0.045
FSCN1 (UniProt Q16658) -0.014
FXR2 (UniProt P51116) -0.074
FUT11 (UniProt Q495W5) 0.018
FYCO1 isoform 4 (UniProt Q9BQS8) 0.05
GFM1 (UniProt Q96RP9) 0.05
GALM (UniProt Q96C23) 0.066
FTH1 (UniProt P02794) -0.041
GGCX (UniProt P38435) 0.064
GGA3 (UniProt Q9NZ52) 0.045
FRG1 (UniProt Q14331) 0.024
GHITM (UniProt Q9H3K2) -0.015
GFER (UniProt P55789) 0.113

compound: C/C(=N\NC(=O)C1=CC(=CC=C1)S(=O)(=O)N2CCOCC2)/C3=C(C=CC(=C3)Cl)O; assay: as above
Procedure, shortened: as §1

log2 fold change, inactive:
GGNBP2 (UniProt Q9H3C7) -0.08
GAB1 isoform 2 (UniProt Q13480) -0.029
FPGT (UniProt O14772) 0.02
GALK2 (UniProt Q01415) 0.026
G3BP2 (UniProt Q9UN86) -0.025
GEMIN4 (UniProt P57678) -0.163
FUNDC2 (UniProt Q9BWH2) -0.018
FXN (UniProt Q16595) 0.027
FRRS1 (UniProt Q6ZNA5) -0.034
GGPS1 (UniProt O95749) -0.021
GGH (UniProt Q92820) 0.017
GFPT1 (UniProt Q06210) 0.056
GAPDH (UniProt P04406) 0.045
GCLC (UniProt P48506) 0.037
FUBP1 (UniProt Q96AE4) -0.172
GCHFR (UniProt P30047) 0.224
GART (UniProt C9JZG2) -0.018
GALNT6 (UniProt Q8NCL4) 0.041
FTSJ1 (UniProt Q9UET6) 0.032
G3BP1 (UniProt Q13283) -0.061
GANAB isoform 2 (UniProt Q14697) -0.021
FSCN1 (UniProt Q16658) 0.04
FXR2 (UniProt P51116) -0.131
FUT11 (UniProt Q495W5) 0.1
FYCO1 isoform 4 (UniProt Q9BQS8) 0.02
GFM1 (UniProt Q96RP9) 0.122
GALM (UniProt Q96C23) 0.041
FTH1 (UniProt P02794) -0.043
GGCX (UniProt P38435) 0.009
GGA3 (UniProt Q9NZ52) 0.026
FRG1 (UniProt Q14331) -0.098
GHITM (UniProt Q9H3K2) 0.033
GFER (UniProt P55789) 0.055

compound: C1=CC(=C(C=C1Cl)C2=NC3=NC=CN=C3C(=N2)NC4=CC=NC=C4)F; assay: as above
Procedure, shortened: as §1

log2 fold change, inactive:
GGNBP2 (UniProt Q9H3C7) -0.122
GAB1 isoform 2 (UniProt Q13480) -0.068
FPGT (UniProt O14772) 0.053
GALK2 (UniProt Q01415) 0.102
G3BP2 (UniProt Q9UN86) -0.301
GEMIN4 (UniProt P57678) -0.522
FUNDC2 (UniProt Q9BWH2) -0.001
FXN (UniProt Q16595) 0.023
FRRS1 (UniProt Q6ZNA5) -0.039
GGPS1 (UniProt O95749) 0.062
GGH (UniProt Q92820) 0.025
GFPT1 (UniProt Q06210) 0.031
GAPDH (UniProt P04406) 0.005
GCLC (UniProt P48506) 0.057
FUBP1 (UniProt Q96AE4) 0.042
GCHFR (UniProt P30047) 0.064
GART (UniProt C9JZG2) 0.285
GALNT6 (UniProt Q8NCL4) 0.048
FTSJ1 (UniProt Q9UET6) -0.059
G3BP1 (UniProt Q13283) -0.311
GANAB isoform 2 (UniProt Q14697) -0.027
FSCN1 (UniProt Q16658) 0.159
FXR2 (UniProt P51116) -0.203
FUT11 (UniProt Q495W5) 0.009
FYCO1 isoform 4 (UniProt Q9BQS8) 0.023
GFM1 (UniProt Q96RP9) 0.078
GALM (UniProt Q96C23) 0.07
FTH1 (UniProt P02794) -0.029
GGCX (UniProt P38435) 0.186
GGA3 (UniProt Q9NZ52) 0.014
FRG1 (UniProt Q14331) -0.266
GHITM (UniProt Q9H3K2) 0.03
GFER (UniProt P55789) -0.023
